For this experiment, the target named is T1, 血清淀粉样蛋白A (Serum amyloid A, SAA), 购自Yashraj biotechnology limited, 货号FRSAA-61 (UniProt P0DJI8).
T1 sequence (looked up): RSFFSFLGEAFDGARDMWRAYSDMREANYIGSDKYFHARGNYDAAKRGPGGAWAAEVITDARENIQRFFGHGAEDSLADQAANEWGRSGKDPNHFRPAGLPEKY
Kind of experiment: screening of mutants, method not detailed.

These are yes or no findings as the source states them, for the method shown. Some results given as binding are weak or reduced against the parent protein; the word gives no strength.

B1: Anti-SAA-11A4mut1 (antibody, mouse IgG1, kappa, V domains shown)
VH: QVQLQQSGAELVRPGVSVKISCKGSGYTFTDYAMHWVKQSHAKSLEWIGVINTYYGDASYNQKFKGKATMTEDKSSSTVYMELARLTSEDSAIYYCARGSSIMITSWFAYWGQGTLVTVSA
VL: DIQMTQSPASLSASVGETVTITCRASENIYSYLAWYQQKQGKSPQLLVYNAKTLAEGVPSRFSGSGSGTQFSLKINSLQPEDFGSYYCQHHYGTPLTFGTGTKLELKR
Take B1: the binding entry is reported as “binds”.

B2: Anti-SAA-11A4mut2 (antibody, mouse IgG1, kappa, V domains shown)
VH: QVQLQQSGAELVRPGVSVKISCKGSGYTFTDYAMHWVKQSHAKSLEWIGVINTYYGDASYNQKFKGKATMTEDKSSSTVYMELARLTSEDSAIYYCARGSSLMITSWFAYWGQGTLVTVSA
VL: DIQMTQSPASLSASVGETVTITCRASENIYSYLAWYQQKQGKSPQLLVYNAKTLAEGVPSRFSGSGSGTQFSLKINSLQPEDFGSYYCQHHYGTPLTFGTGTKLELKR
B2: the binding entry is on record as “binds”.

The values are drawn from CN116836274A.
